# From PMC12040169 (PLOS Biology, 2025)
# The list shows a part of the results.
# System: T1, CTL2-GFP (C. trachomatis L2/434/Bu, GFP-expressing)
# T1 construct: L2/434/Bu, GFP-expressing
# Design: species or system HeLa; Intracellular C. trachomatis growth in HeLa cells, bulk GFP fluorescence relative to DMSO
# Conditions: bulk GFP, single well; 28.5 h, 10 µM; inhibitor
row,SMILES,% of control remaining [%]
1,Brc1ccc(OCCCCCCN2CCCCC2)cc1 [CBK261784],121.31
2,Cc1cc(NC(=O)C2CC2)sc1C(=O)NC(C)c1ccc(F)cc1F (stereo not shown) [CBK296625],149.744
3,CCOC(=O)C1(Cc2cc(-c3cccc(F)c3)no2)CCNCC1 [CBK284881],141.33
4,COC(=O)CCCC(=O)n1c(=O)n(CC2CCCCC2)c2ccccc21 [CBK106524],106.631
5,CC(C)(C)c1cc(C(=O)CSc2nnc(Nc3ccccc3)n2-c2ccccc2)cc(C(C)(C)C)c1O [CBK261033],111.716
6,O=C(O)C1CC=CCC1C(=O)NCCCCc1ccccc1 (stereo not shown) [CBK265460],123.423
7,CC1(C)OC2C(C(=O)O)OC(n3cnc4c(N)ncnc43)C2O1 (stereo not shown) [CBK262912],100
8,Cc1ccc(C2=CCN(CC(=O)N(C)C3CCCCC3)CC2)o1 [CBK283633],130.079
9,CC(C)(CO)CNc1nc(-c2cccnc2)cnc1N [CBK063475],149.402
10,CCN(CC)CCCCC1(C)SC(NC2CCCCCC2)=NC1=O (stereo not shown) [CBK113257],129.621
11,COc1cnc(-c2ccccc2OC)c(NC(=O)Cc2ccccc2)n1 [CBK145260],109.754
12,Cc1ccc(CN(CCCn2ccnc2)Cc2nc3ccccc3[nH]2)o1 [CBK283103],107.284
13,c1ccc(-c2nc(-c3ccncc3)sc2-c2ccccc2)cc1 [CBK291203],76.4317
14,COc1ccc(C(=O)NCc2ccc(S(N)(=O)=O)cc2)cc1[N+](=O)[O-] [CBK263629],92.9353
15,c1cc(-c2cncc(-c3ccsc3)n2)cs1 [CBK113356],147.303
16,CSCCCNC(=O)c1cc(-c2ccc(C(=O)N3CCOCC3)cc2)cnc1N [CBK158568],106.611
17,Cc1cc(Cl)c(S(=O)(=O)N2CC(C)OC(C)C2)cc1OCC(N)=O (stereo not shown) [CBK266452],115.161
18,Cc1ccc(S(=O)(=O)N2CCN(CCC(=O)O)CC2)cc1 [CBK269443],94.6437
19,Cc1nc2sc(C(=O)OCc3cc(=O)oc4cc5c(cc34)CCC5)c(C)c2c(=O)[nH]1 [CBK297528],96.0527
20,CCn1cc(C(=O)O)c(=O)c2cc(F)c(N3CCN(C(=S)Nc4cccc5ccccc45)CC3)cc21 [CBK265809],100
21,COc1cc(C(=O)Nc2ccc(-c3nc4ncccc4o3)cc2)ccc1OCc1ccc(Cl)cc1 [CBK033914],105.36
22,COC(=O)COc1nccnc1-c1ccc(OC(F)(F)F)cc1 [CBK106849],147.186
23,O=C(CCC1CCCC1)N1C[C@@H]2CCCCN(CC3CC3)[C@@H]2C1 [CBK285531],102.985
24,CCOc1cc(/C=N/O)ccc1OC(=O)c1cccc([N+](=O)[O-])c1 [CBK090036],96.4198
25,O=C(Nc1ccc2n(c1=O)C[C@H]1C[C@@H]2CN(C(=O)Cc2cccs2)C1)c1ccco1 [CBK289204],105.826
26,CCn1cncc1CN1CCCC(O)(c2ccc(F)cc2)CC1 (stereo not shown) [CBK284838],134.514

row,SMILES,% of control remaining [%]
1,CCOC(=O)Cn1nc(CC)n2c(cc3ccsc32)c1=O [CBK284133],108.802
2,O=C(c1nn2c(c1Br)NC(c1cccs1)CC2C(F)(F)F)N1CCCC1 (stereo not shown) [CBK307180],150.9
3,NC(=O)[C@@H]1C[C@@H](O)[C@H](O)[C@H]2[C@@H]1N(c1ccccc1)C(=S)N2Cc1ccc(F)cc1 [CBK288928],126.219
4,CCCC/C=C/c1ccc(N2CCN(CCN(C)C)CC2)nc1 [CBK036980],215.644
5,O=C1C(c2ccccc2)=C(c2ccccc2)C(c2ccc(C3=C(c4ccccc4)C(=O)C(c4ccccc4)=C3c3ccccc3)cc2)=C1c1ccccc1 [CBK261220],115.253
6,O=C(O)c1ccc(CNC(=O)c2cnc(-c3ccc(F)cc3)c(-c3ccc(O)cc3)c2)cc1 [CBK037996],172.185
7,COC(=O)[C@H](CC1CCCCC1)NS(=O)(=O)c1ccc(C(C)C)cc1 [CBK044551],105.807
8,Cc1cc(OC(F)(F)F)ccc1S(=O)(=O)Nc1nc(CC(=O)O)cs1 [CBK000575],106.402
9,O=[N+]([O-])c1ccccc1S(=O)(=O)N1CCN(c2ccccc2)CC1 [CBK261755],112.805
10,c1ccc(OCCOc2ccc(N3CCNCC3)nn2)cc1 [CBK022577F],109.468
11,O=c1c2ccccc2nc2n1CCN(Cc1cc(F)ccc1F)CC2 [CBK284818],126.541
12,COc1ccc(-c2nnc3[nH]c(=O)n(C)c(=O)c3n2)cc1OC [CBK263914],103.853
13,CCc1nnc2sc(-c3ccc(C)c(NC(=O)c4ccc(N5CCCCC5)c([N+](=O)[O-])c4)c3)nn12 [CBK268476],117.318
14,O=C(NC1CC1)[C@@H]1C=CCN1S(=O)(=O)c1ccccc1Cl [CBK285479],140.899
15,COCCn1c(SCc2nc3ccccc3nc2C)nc(C)c1C [CBK305651],101.269
16,Cc1nc2c(-c3ccccc3)cnn2c(N2CCCC2)c1C [CBK287799],140.108
17,COc1ccc(OCc2nc(-c3cccs3)no2)cc1 [CBK269782],106.58
18,O=C(NCCN1CCC(O)(c2cccc(F)c2)CC1)C1CCCCC1 [CBK283281],123.307
19,O=C1NC2(CCCN(C(=O)c3cccs3)C2)Oc2ccccc21 (stereo not shown) [CBK284799],142.906
20,Cc1cccc(OCC2CCCN(C(=O)CCc3nncn3C)C2)c1 (stereo not shown) [CBK306640],101.434
21,CN(CCc1cnn(C)c1)C(=O)NCCCN1CCCC1=O [CBK307008],151.982
22,Cn1c(OCc2cccnc2)nc2c1c(=O)n(Cc1ccc(Cl)c(Cl)c1)c(=O)n2C [CBK267498],136.671
23,O=S(=O)(Nc1nn(Cc2ccc(C(F)(F)F)cc2)c2ccccc12)c1cccc2nsnc12 [CBK048086],117.764
24,CC1CCN(C(=O)C[C@@H]2O[C@H](CNS(=O)(=O)c3ccccc3)[C@@H](O)[C@H]2O)CC1 [CBK288927],134.529
25,O=C(CC[C@@H]1CNC(=O)[C@@H]2C[C@H](NC(=O)C3CC3)CN12)Nc1ccccc1 [CBK289006],99.5583
26,Cc1ccn(CCC(=O)NC(C)c2cccnc2)n1 (stereo not shown) [CBK282197],119.998

# Not a retest: an excerpt of the list.
row,SMILES,% of control remaining [%]
20,CCn1cc(C(=O)O)c(=O)c2cc(F)c(N3CCN(C(=S)Nc4cccc5ccccc45)CC3)cc21 [CBK265809],100
21,COc1cc(C(=O)Nc2ccc(-c3nc4ncccc4o3)cc2)ccc1OCc1ccc(Cl)cc1 [CBK033914],105.36

# (cont.)

row,SMILES,% of control remaining [%]
1,O=C(Nc1ccccc1)NC(N1CCOCC1)C(Cl)(Cl)Cl (stereo not shown) [CBK261293],102.385
2,C=CCNC(=O)C1CCN(c2nc3ccccc3n2CC)CC1 [CBK283920],88.6534
3,CC(=O)NS(=O)(=O)c1ccc(NC(=O)CCSc2ccc(C)cc2)cc1 [CBK296141],55.9251
4,COc1ccc(N2CCN(C(=S)c3ccc(OCC(N)=O)cc3)CC2)cc1 [CBK269190],108.878
5,CC(Cn1nnc2ccccc21)C(=O)O (stereo not shown) [CBK264727],97.8675
6,O=C(NC(Cc1ccc(O)cc1)C(=O)O)c1ccccc1 (stereo not shown) [CBK260937],118.048
7,Cn1nccc1NS(=O)(=O)c1ccc(Br)cc1C(F)(F)F [CBK062082],117.375
8,O=C(CCc1ccncc1)N1CCC(c2cc3ncccc3[nH]2)CC1 [CBK284460],165.11
9,O=C(O)c1c2c(nc3ccccc13)CCN(Cc1ccccc1)C2 [CBK286805],150.26
10,COc1cc(NC(=O)c2cc3nc(-c4cccs4)cc(C(F)(F)Cl)n3n2)c(C(C)=O)cc1OC [CBK268312],142.681
11,CCSc1nnc2c(n1)OC(C1CC=C(C)CC1)Nc1ccccc1-2 (stereo not shown) [CBK262367],100
12,O=C(c1ccc2ncccc2c1)N1CCC2(CCN(C(=O)c3cc(F)c(F)cc3F)C2)C1 (stereo not shown) [CBK131391],138.67
13,CCCn1nnnc1NCc1cccc(Cl)c1 [CBK288130],115.111
14,Cc1ccc(/N=N/c2c(O)c(C(=O)Nc3ccc4c(c3)c(=O)[nH]c3ccccc34)cc3ccccc23)c(Cl)c1 [CBK262306],117.464
15,Cc1nc2n(CC#N)c3ccccc3n2n1 [CBK062670],117.679
16,COc1cncc(C(NC(=O)Cn2ccccc2=O)[C@H]2C[C@@H](O)C2)c1 (stereo partly shown) [CBK307557],124.826
17,CCN1CCN(c2ccc(-c3ccc(OCC4CCN(C(=O)OC(C)(C)C)CC4)cn3)cn2)CC1 [CBK174505],114.333
18,O=S(=O)(c1ccc(-c2ccc(S(=O)(=O)N3CCOCC3)cc2)cc1)N1CCOCC1 [CBK261366],98.0004
19,O=C(c1cccnc1)C1CCN(C(=O)c2cc(F)cc(F)c2)CC1 [CBK283746],112.025
20,COc1ccc([C@@]23CC[C@@H](NC(=O)Nc4ccc(F)cc4)C[C@@H]2N(C)CC3)cc1OC [CBK036458T],113.185
21,CCOC(=O)c1sc(Sc2nnc(C(F)(F)F)n2C)c2c1CC(C)(C)CC2=O [CBK005649],112.755
22,O=C(O)/C=C/C(=O)N(Cc1ccc2c(c1)OCO2)C1CC(=O)N(c2ccccc2)C1=O (stereo not shown) [CBK262786],99.1167
23,Cc1cccc(NC(=S)N(CCN(C)C)Cc2cc3cc(C)cc(C)c3[nH]c2=O)c1 [CBK135105],100
24,CC(=O)Nc1ccc(Nc2ncnc3scc(-c4ccccc4)c23)cc1 [CBK264930],100
